Data taken from PubChem BioAssay AID1259421 (Broad Institute, 2018).
Only a part is listed here, and it is no random draw. Calls of active or inactive are those of the source. Cut-off read from the data, not from the text of the source: active = activity change below about -70%; inconclusive = no clear call, values can overlap the other calls; inactive = above that.

test: Toxoplasma gondii ME49Luc growth in HeLa cells, luciferase, no IFN-y, primary screen (AID 1259421); settings: T. gondii ME49Luc in HeLa, 72 h, hits give low values, concentration not given here

SMILES | activity change, negative = inhibition
O=C1NC(=O)c2c1c(-c1ccccc1)cc1[nH]c3ccc(O)cc3c21 | active: -83.3%
